The target of data set [1] is T1, ABCA5 (PIN-1), native in HGPIN tissue extract (Homo sapiens) (UniProt Q8WWZ7).
T1 sequence: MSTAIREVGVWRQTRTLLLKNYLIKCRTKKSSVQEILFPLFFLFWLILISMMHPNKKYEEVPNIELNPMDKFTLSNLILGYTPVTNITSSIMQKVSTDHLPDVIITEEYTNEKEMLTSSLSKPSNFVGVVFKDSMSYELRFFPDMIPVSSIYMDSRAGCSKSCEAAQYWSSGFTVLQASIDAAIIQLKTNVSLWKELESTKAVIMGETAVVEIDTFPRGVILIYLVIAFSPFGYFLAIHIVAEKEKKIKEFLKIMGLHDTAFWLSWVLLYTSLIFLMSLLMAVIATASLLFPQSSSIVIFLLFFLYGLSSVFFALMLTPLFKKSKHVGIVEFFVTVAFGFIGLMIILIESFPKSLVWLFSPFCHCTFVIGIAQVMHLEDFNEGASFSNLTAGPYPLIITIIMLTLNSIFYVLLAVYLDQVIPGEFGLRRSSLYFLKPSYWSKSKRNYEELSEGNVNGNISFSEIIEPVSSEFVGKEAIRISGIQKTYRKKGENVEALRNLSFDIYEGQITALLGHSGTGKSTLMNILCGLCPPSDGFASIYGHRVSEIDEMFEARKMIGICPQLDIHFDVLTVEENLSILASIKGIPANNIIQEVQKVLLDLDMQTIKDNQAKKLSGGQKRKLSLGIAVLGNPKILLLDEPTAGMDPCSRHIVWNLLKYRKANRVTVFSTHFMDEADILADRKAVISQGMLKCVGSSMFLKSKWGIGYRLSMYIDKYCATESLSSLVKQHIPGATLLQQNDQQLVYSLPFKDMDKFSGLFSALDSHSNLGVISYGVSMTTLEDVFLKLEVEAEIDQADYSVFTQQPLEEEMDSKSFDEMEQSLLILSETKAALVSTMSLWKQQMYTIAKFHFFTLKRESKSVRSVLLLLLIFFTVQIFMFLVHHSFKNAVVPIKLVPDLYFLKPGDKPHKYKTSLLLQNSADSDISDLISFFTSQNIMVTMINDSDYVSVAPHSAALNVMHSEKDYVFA
Put plainly: EMSA. The following applies: crude extract ~5 ug, 1 ug poly(dI-dC); blocked by 20-50 ng unlabeled probe; protein in an extract; label: 32P.

Data set [2] concerns the target T2, ABCA5 (PIN-1), recombinant from lambda phage cDNA clones (Homo sapiens) (UniProt Q8WWZ7).
T2 sequence: T1 sequence
The data set is described as follows: EMSA. The note with it: single band shift; blocked by unlabeled probe; wild-type phage host extract gave no shift; poly(dI-dC); protein in a lysate after overexpression; label: 32P. For orientation: Mobility shift assays separate free from complexed probe on a gel.

Where cells or extracts were used, other partners may take part. Where a protein sequence is shown, tags need not be part of it.

In the case of “TCCAGCGA (double strand) [PIN-specific 8-mer duplex probe]”, the binding result in data set [1] and in data set [2] was “binds” in each case.
